Measurements taken from PMC10517019.

By UniProt entry, the sequences of proteins in these tests, tags left out. Where a name states a change or a piece, a line headed by the entry shows the natural chain unless it says otherwise.
UniProt Q9UKT8: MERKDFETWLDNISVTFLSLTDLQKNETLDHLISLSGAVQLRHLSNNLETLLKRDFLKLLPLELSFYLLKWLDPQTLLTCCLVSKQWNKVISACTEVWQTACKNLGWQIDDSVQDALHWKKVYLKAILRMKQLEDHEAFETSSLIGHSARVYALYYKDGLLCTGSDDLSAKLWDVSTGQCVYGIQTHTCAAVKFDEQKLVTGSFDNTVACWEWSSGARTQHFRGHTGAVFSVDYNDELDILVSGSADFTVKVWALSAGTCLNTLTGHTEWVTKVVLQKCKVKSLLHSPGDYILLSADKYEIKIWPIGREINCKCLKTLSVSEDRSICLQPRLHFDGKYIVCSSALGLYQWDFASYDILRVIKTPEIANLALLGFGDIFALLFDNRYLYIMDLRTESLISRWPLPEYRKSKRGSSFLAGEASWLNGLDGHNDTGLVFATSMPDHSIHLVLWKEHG
UniProt P26038: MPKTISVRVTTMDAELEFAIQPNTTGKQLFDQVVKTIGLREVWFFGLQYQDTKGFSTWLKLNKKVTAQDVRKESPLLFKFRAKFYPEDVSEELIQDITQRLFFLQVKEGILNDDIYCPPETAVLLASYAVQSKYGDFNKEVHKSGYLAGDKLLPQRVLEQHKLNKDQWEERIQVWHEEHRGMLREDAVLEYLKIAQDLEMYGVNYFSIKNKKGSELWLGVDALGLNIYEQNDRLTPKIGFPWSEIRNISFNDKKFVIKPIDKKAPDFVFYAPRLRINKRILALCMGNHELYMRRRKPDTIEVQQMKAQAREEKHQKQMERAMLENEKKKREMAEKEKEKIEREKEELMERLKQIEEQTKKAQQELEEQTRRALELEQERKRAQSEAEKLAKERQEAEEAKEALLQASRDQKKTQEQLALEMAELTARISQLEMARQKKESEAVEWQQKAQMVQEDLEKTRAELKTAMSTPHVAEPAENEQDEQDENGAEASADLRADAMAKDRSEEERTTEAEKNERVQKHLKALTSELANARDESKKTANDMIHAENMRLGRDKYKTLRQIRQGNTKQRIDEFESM

Molecular target: F-box motif-deleted FBXW2 mutant (FLAG-∆F-FBXW2) (UniProt Q9UKT8)
Assay: co-IP; MCF7 cells transfected with vector, FLAG-FL-FBXW2 or FLAG-∆F-FBXW2 36 h, 5 µM MG132 6 h; anti-FLAG immunoprecipitation, immunoblot (Fig. 4E); also FLAG-FBXW2 with or without 5 µM AKT inhibitor 12 h or AKT silencing (Fig. 6D)

Q: How did the binding turn out when “Membrane-organizing extension spike protein (Moesin), endogenous (from UniProt P26038 1-577)” was run?
A: binds

No constants are given. Whether binding was seen depends on the method and setting. In cells and extracts the contact can be indirect. A result given as binding can be weak or reduced; the word gives no strength.
